This passage reports median seed-adjusted z-score results from PubChem BioAssay AID1347426 (Functional Genomics Laboratory (NCATS/FGL), 2020).

Among all 31,000 sequences or so, about 1,400 (4.5%) were called active.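 Rule for the calls: active = median seed-adjusted z-score above 1 or below -1; inactive = the rest.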 The list shows a part of the results.

The test is described as follows: Novel Modifiers of Survival Motor Neuron (SMN) Protein: Gene Identification via Genome-wide siRNA Screen.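 Note: luminescence tracks full-length SMN protein made from the SMN2 reporter.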 Conditions: HEK293T SMN2-luciferase reporter, siRNA knockdown, 72 h; actives lie on both sides. Summed up:
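Luciferase signal, proportional to full-length SMN made from an SMN2 cDNA reporter in stable HEK293T cells, was read 72 h after siRNA reverse transfection. Values were expressed as MAD scores after non-targeting-control normalization and log10 conversion; seed analysis flagged off-targets.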
On the technique in general: A reporter such as luciferase makes a cellular process visible.
CGCAUAUCCCGAUAUAACATT against UBE4B: the median seed-adjusted z-score was inactive: -0.0364. Next, GCGGAAAUGUGAGCGUGUATT against TRIM28: inactive: -0.718; GAAGGGACAUUACUACUAUTT against TDRKH: inactive: -0.434.

Take CCAUUGAACACUAACCCAATT against ADD1: the median seed-adjusted z-score is inactive: -0.0129. Next, UGGUGACUCUCAUUUCGCATT against BCAP31: inactive: 0.277; GCAACCAUGUGAAUCACUATT against MIZF: inactive: 0.365; CCCUGAAGAUAUUUAGAGATT against PDIA3: inactive: -0.619. Next, ACAUCAUGCUGGACGUGCATT against ACCN3: inactive: -0.114. Regarding AGUUGUAACCUGAUGGUAATT against HSPA1B, the median seed-adjusted z-score is inactive: 0.302. Next, GGCUGAAUUUGGUACACUATT against MAN1A2: inactive: 0.554; GGAAAAUUCCUCUACAUCUTT against NPAS1: inactive: -0.386; UCCGCUACCUGGGUGUUGATT against DUSP26: inactive: 0.204. Take GUACCUGCAGAAUAAUAAATT against S100A8: the median seed-adjusted z-score was inactive: -0.337. Under GGGACGAUGUUAAGUUUCATT against PEX5L stands inactive: 0.0982; under GAAUGAAGAUGAACGGGAATT against EIF2S1, inactive: -0.175; under GAACUGCUACCCGAAAUUATT against NASP, inactive: 0.133. Under CAUCCUGGAUAGCUCAAAATT against CTBS stands inactive: 0.0442. Under GGAACAAGAUGGAAGAGAATT against DFFB stands inactive: 0.242; under CUAUCAUAGCUGAUCGGUUTT against SLC8A1, inactive: 0.221; under GGUUUAUCCUGGGCUCUUUTT against SLCO3A1, inactive: -0.0387. As to GCUUUGUGCUGGUCUACGATT against RERG, the median seed-adjusted z-score was inactive: 0.59. Under CCCUUACUUUGCUAAGCAATT against GNPNAT1 stands inactive: 0.313. Take AGAUGAAAGAGGACGCGAATT against TNNC2: the median seed-adjusted z-score was inactive: -0.773. Next, GAACGGCUGUAGUAGAUCUTT against RARS2: inactive: -0.0247.

Regarding GCUGCUGUCCAAUCCCAGATT against GRN, the median seed-adjusted z-score was inactive: -0.767. Under GCUCCCAGAUUGAUAUCUATT against EXOSC4 stands inactive: 0.443; under GAGUGGAGCGUACAUCCUATT against ZXDA, inactive: -0.0748; under CCUUAUGUAUAAUGAAACATT against RHCE, inactive: 0.488. Turning to GCAGUAGACAAGUCUGACATT against SLC1A1, the median seed-adjusted z-score was inactive: 0.0967. Under “ACAUCCAGCCUAAACUCUATT against STON1-GTF2A1L” stands inactive: 0.294; under CACUCCACUUUUUCAGACATT against BATF2, inactive: 0.714; under UCAGUUUCCUAAUCUGUAATT against QPRT, inactive: 0.15.

CCAUUGACCUCUCCGCCUATT against CEBPE: the median seed-adjusted z-score was inactive: -0.259. Next, GGUACAUCAUGAUAGAACATT against ABCD2: inactive: -0.102; GUACUCAUCUUUUACCUAATT against LMBR1L: inactive: 0.349; GGAGGUGUUUGACAAGCGATT against SMPD3: inactive: -0.0115. For the sequence AGCCUUCAGUGGUCAGUCATT against ZNF702, the median seed-adjusted z-score was inactive: 0.204.

Take GAUUAAUCCUUCAAUGAUUTT against TAF9B: the median seed-adjusted z-score was inactive: -0.0247. Under CUGUAGAACUAGUCCUUAUTT against PRKRIR stands inactive: 0. Next, GGACAGAGCAAAAACUUCUTT against DYRK4: inactive: -0.824; GCGUUGACCAAGACUCAUATT against TP53BP2: inactive: 0.157; GAUCUUUCCUCAGUGGAGATT against PARP9: inactive: -0.526. Next, GAGCUCCAUUGGUAAAUUUTT against ANAPC10: inactive: 0.946; GCAUGGUACUCUAUAGUCUTT against FAT4: inactive: -0.363. For GAUAUCUUCCAAAACGAAATT against BLM, the median seed-adjusted z-score is inactive: -0.0654. On to GAAUCUGUCUUAGAUCUCATT against PRDM2, for which the median seed-adjusted z-score is active: 1.12. Next, GGCAGACUCUCUAUGAACATT against TFR2: inactive: 0.965.

With CGCACGAUAUUGAGGAGAATT against 9-Sep, the median seed-adjusted z-score was inactive: -0.0175. Next, CCAGCACGUUGGAAGACCATT against ZNF808: inactive: 0.138; CCAUAAAUGCUACGAAUAUTT against EGFR: inactive: 0.263. Next, UGGUGUUGAUCGGAAUCUATT against SLC12A9: inactive: -0.0853; CAUAACAACUUCUACCGAATT against ABHD6: inactive: 0. Next, CCUUCGCUAUGCUGACAGATT against KIF4A: inactive: -0.156.

CGCUGGAUGUUGCAGGAUATT against TRIM68: the median seed-adjusted z-score was inactive: -0.628. As for GGAUUGCUACAAGAACUUUTT against FHL1, the median seed-adjusted z-score was inactive: 0.574. In the case of GGAAGCAAUUAAUUACACUTT against ARSK, the median seed-adjusted z-score is inactive: -0.00229.

For the sequence GGAAUAAUGCUGACCAAGATT against GART, the median seed-adjusted z-score is inactive: -0.414. Next, GGUUCACAAUCUAUACAGUTT against JMJD1B: inactive: 0.402; CUCUCACAGUGGCCUGUAATT against S100A1: inactive: 0. Next, GCUGCAAAAUCCGAUGAGATT against HSPB1: inactive: 0.693; GGUGAUAACUCAUCCUGUATT against ZFP28: inactive: 0.275. Take GAAGAUCUAUUUUGCGGAUTT against PSMC3IP: the median seed-adjusted z-score was inactive: -0.0482. GAGUCUGCGUUAUCGACAATT against TPR: the median seed-adjusted z-score was active: -1.03. Under GAGCAAGAGUUUAACCGGUTT against AOF2 stands inactive: -0.215; under CGUUAUGUUUUUACCCUAUTT against CATSPER3, inactive: 0.685; under GCAUGACCUUCAUCGUACATT against SLC34A2, inactive: 0.

As to GGAUCGUCAUGUAUACUUATT against GPRC5C, the median seed-adjusted z-score was inactive: 0.498. Turning to CGAACAAGAUGACCAGGUATT against ARRB2, the median seed-adjusted z-score was inactive: -0.153. Next, CCGCAAAACUCCUACAGCATT against HDAC5: inactive: -0.342; AGGAUACAUUGGAAAAGAUTT against SMYD1: inactive: -0.0827; CCAGUAUCUUGAUAUCAGUTT against TLR1: inactive: 0. Under GCCUGGUUUUGGAUACAAATT against LTA4H stands inactive: -0.742; under CGACCAGGCUAACACGCUUTT against KCNN1, inactive: -0.347; under CCGUGCUAUUCAUCGCAAATT against ACTR1B, inactive: -0.18. Next, CAACGACAGCAGUCCCAUUTT against EGR1: inactive: 0.0836; GCCGAAUUGUUUCUAGUUATT against PIN1: inactive: 0.156. With GGUGAUCCCUGAGCAUCUATT against AS3MT, the median seed-adjusted z-score is inactive: -0.74. Next, GGAAACUCGUCGUUCAAUATT against IL13RA1: inactive: 0.269. Next, GGACUGUUCAUGUAGUACATT against ELF1: inactive: 0.0269; GACCUCGAAUGAAUGCGAATT against CRY1: inactive: 0.0564.

For the sequence CCAGGUGUAUUCAAUGGAATT against FMO3, the median seed-adjusted z-score was inactive: -0.0769. Under GAGCAAAGGGUAUCCGGAATT against PIAS3 stands inactive: -0.216. Next, GCAGUCGGCUUUGAUUAUATT against HCLS1: inactive: 0.107.

In the case of CAACAAGUGUAACGACGAUTT against SMPD3, the median seed-adjusted z-score was inactive: -0.0115. Under UGAUGGAGAUCGUCACCUATT against HCK stands inactive: -0.48; under GGGUAUGAGAUAUGCGGUATT against TYW1, inactive: 0.201; under CAUCGAAACUUUACCUAAATT against NAP1L4, inactive: -0.244.

As for GGUACAAGCUCGAGGUAUATT against B4GALT6, the median seed-adjusted z-score was inactive: 0.224. Under CAGUAGUGUUGGUAGACCATT against HADH stands active: 1.11. In the case of GCACUGUCAGUUACACCAATT against DDR2, the median seed-adjusted z-score was inactive: 0.252.

Take GGCCUGUAAGGAGCACUCATT against CABP7: the median seed-adjusted z-score was inactive: -0.268.

Turning to CACCCAGUCUAGUAACGAUTT against DSCAM, the median seed-adjusted z-score was inactive: -0.527. Regarding CCCAGUCUGUGAAACCGAATT against JMJD3, the median seed-adjusted z-score is inactive: 0.871.

As for GAGAGGUACCAGACCAUGATT against POLM, the median seed-adjusted z-score is active: -1.55.

Regarding GGCGAACCACCUGAACAAATT against TGM2, the median seed-adjusted z-score is inactive: 0.413.

On to GUCACUGACUUUUACCGCATT against EXTL3, for which the median seed-adjusted z-score was inactive: -0.353. Next, GUAGAACUCUAAUGAAGAATT against NEUROG1: inactive: 0.485. Under ACAGUUUACUCAGCACUAATT against KLF11 stands inactive: 0.158; under GCACGUGCACUAUAACACUTT against NSUN6, inactive: 0.428.

With GGAGUUGCCUUUGACCACATT against ELAC2, the median seed-adjusted z-score was inactive: 0.016. Under CUAUAGCUCUUUCAACAAUTT against RORB stands inactive: 0.044; under GCACUAGUAUAUUCUAUUATT against RAP1A, inactive: 0.276. Next, CGUAGACAAUGAAACCGAATT against ATP13A3: inactive: -0.619. Under CGAGCUAGCUCUAACACCATT against RALGDS stands inactive: -0.235; under CAAGUUCAAUGGUGUCUGATT against RELT, inactive: 0.349.

In the case of GCUCCUACAUCUACGAGAATT against CRIP2, the median seed-adjusted z-score is inactive: -0.226. Under ACUAGCCUGUGGAGCAAGATT against HBE1 stands inactive: -0.425.
